Data source: PubChem BioAssay AID1053208 (Peter MacCallum Cancer Centre, 2014)
Here is an unselected part of about 17,000 deposited reagents. 788 of all reagents (4.7%) count as active. 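Calls rest on z-score classes alone; an extra cut-off of viability at most 70% of control was not applied to them.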 Entries without a mark were called inactive. Not all columns of the deposit are shown.

Test: 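Synthetic lethal interactions between gene loss and doxorubicin in osteosarcoma cells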 (primary screen)
System: mouse osteosarcoma cells, early-passage culture from an engineered mouse model of fibroblastic bone tumour
Knock-down reagent: siRNA pool against mouse genes, 40 nM
Duration: about 120 h (48 h before drug, then 72 h with drug)
Treatment: doxorubicin 100 nM for 72 h, roughly 30-40% inhibitory dose
Detection: 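Luminescent ATP signal taken as viability with or without 100 nM doxorubicin for 72 h; mean of two wells set against non-targeting siRNA and turned into robust z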
Scale: viability z-score with doxorubicin: higher = more viable cells under doxorubicin; viability z-score without drug: higher = more viable cells with knock-down alone
Hit rule: 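Called active if knock-down leaves viability unchanged without drug (z within -2 to 2) but lowers it with doxorubicin (z at or under -2)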

Depletion of Hspb8 gave: combined z-score class no change with or without drug; viability z-score with doxorubicin 0.67; viability z-score without drug -0.17.
Or2y15 scored combined z-score class no change with or without drug; viability z-score with doxorubicin -0.9; viability z-score without drug -0.34.
Depletion of Trappc14 gave: combined z-score class no change with or without drug; viability z-score with doxorubicin 1.69; viability z-score without drug 0.51.
Against Nol9 the deposit lists combined z-score class no change with or without drug; viability z-score with doxorubicin 1.57; viability z-score without drug -0.17.
Against Pmp22 the deposit lists combined z-score class no change with or without drug; viability z-score with doxorubicin 0.9; viability z-score without drug -0.34.
Depletion of Hoxd10 resulted in: combined z-score class low cell count without drug only; viability z-score with doxorubicin -0.67; viability z-score without drug -2.19.
With knock-down of Pttg1, the record shows combined z-score class no change with or without drug; viability z-score with doxorubicin 0; viability z-score without drug 0.84.
With knock-down of Nelfe, the record shows combined z-score class low cell count with doxorubicin only (active); viability z-score with doxorubicin -2.25; viability z-score without drug -0.34.
Against Adrb3 the deposit lists combined z-score class no change with or without drug; viability z-score with doxorubicin 0.9; viability z-score without drug -0.17.
With knock-down of Zfp24, the screen gave combined z-score class no change with or without drug; viability z-score with doxorubicin 0.67; viability z-score without drug 0.84.
Silencing of H2ac6 resulted in: combined z-score class no change with or without drug; viability z-score with doxorubicin 0.56; viability z-score without drug 0.67.
Against Ankrd24, the values are combined z-score class no change with or without drug; viability z-score with doxorubicin 0.79; viability z-score without drug 0.84.
For Pex16, the entry reads combined z-score class no change with or without drug; viability z-score with doxorubicin 0.45; viability z-score without drug 0.17.
Against Ikbkb the deposit lists combined z-score class no change with or without drug; viability z-score with doxorubicin 1.91; viability z-score without drug 0.34.
Dlg3 showed combined z-score class high cell count without drug only; viability z-score with doxorubicin 1.12; viability z-score without drug 3.37.
Silencing of Hmgcll1 resulted in: combined z-score class no change with or without drug; viability z-score with doxorubicin -0.79; viability z-score without drug -0.51.
C130023O10Rik scored combined z-score class no change with or without drug; viability z-score with doxorubicin -0.34; viability z-score without drug -0.17.
Silencing of Slc5a4a resulted in: combined z-score class low cell count with doxorubicin only (active); viability z-score with doxorubicin -2.7; viability z-score without drug 0.17.
With knock-down of Wnt2, the record shows combined z-score class high cell count without drug only; viability z-score with doxorubicin -0.22; viability z-score without drug 2.19.

2 of these entries, reformatted.
{"gene": "Ikbkb", "combined z-score class": "no change with or without drug", "viability z-score with doxorubicin": 1.91, "viability z-score without drug": 0.34}
{"gene": "Dlg3", "combined z-score class": "high cell count without drug only", "viability z-score with doxorubicin": 1.12, "viability z-score without drug": 3.37}
